No constants are given. Whether binding was seen depends on the method and setting. Binding seen in cells or lysates may run through a third protein. Some binding calls cover weakened binding; strength is not graded here.
Target: PTEN (phosphatase and tensin homolog on chromosome ten) (human (endogenous in HCC cells)) (UniProt P60484)
Assay: co-IP; endogenous proteins in HCC cell lysate (IP lysis buffer); antibodies against p62, LAMP2A, LC3B or PTEN on protein G magnetic beads, overnight at 4 °C, washed with NT2 buffer (50 mM Tris-HCl pH 7.4, 150 mM NaCl, 1 mM MgCl2, 0.05% NP40), western blot; also done in RP11-295G20.2 knockout cells (association decreased) and RP11-295G20.2-overexpressing cells (association increased)

Protein sequences, listed by entry. Tags and fused reporters are not part of them.
UniProt P60484: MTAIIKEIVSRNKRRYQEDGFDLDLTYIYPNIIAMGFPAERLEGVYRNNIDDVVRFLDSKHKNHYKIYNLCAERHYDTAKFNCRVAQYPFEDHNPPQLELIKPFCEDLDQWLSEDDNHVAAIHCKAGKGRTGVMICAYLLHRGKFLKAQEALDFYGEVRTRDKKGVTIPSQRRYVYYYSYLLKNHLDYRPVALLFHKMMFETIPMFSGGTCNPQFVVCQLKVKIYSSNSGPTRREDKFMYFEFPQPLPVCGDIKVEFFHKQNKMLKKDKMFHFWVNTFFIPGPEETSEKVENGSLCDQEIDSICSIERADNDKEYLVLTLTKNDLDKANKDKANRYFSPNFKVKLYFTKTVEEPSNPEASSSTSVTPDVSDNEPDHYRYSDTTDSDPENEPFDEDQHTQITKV

binding: binds
Substance: p62 (from UniProt Q13501 1-440)
